Data as given in PubChem BioAssay AID602196 (INSERM, 2012)
Purpose: 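Modifiers of cisplatin sensitivity in A549 cells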. Cell system: human A549 lung cancer cells. Reagent: siRNA pair against human genes. Timing: 48 h transfection before cisplatin; time from cisplatin to read-out not stated. Challenge: cisplatin at a dose killing half of control-siRNA cells; exact dose and duration not given. Detection: 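Cisplatin cell death as a shift from the 50% death seen with control siRNA; siRNAs toxic or growth-blocking alone scored 0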. Reading the numbers: two-siRNA summed score (-2 to +2): higher = both siRNAs protect from cisplatin killing; -2 means both sensitise; mean protection from cisplatin (shift in death): higher = protection from cisplatin killing. Rule for the call: 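Each siRNA scores 0 if harmful alone by LDH or WST-1, otherwise +1 if it reduces and -1 if it increases cisplatin killing; a gene is active when both siRNAs agree (sum +2 or -2)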. Meaning of the calls: active = both siRNAs shift cisplatin killing the same way; inactive = no consistent shift, or siRNA harmful alone.
This is one part, drawn at random, of about 23,000 reagents tested. Over the whole deposit, 455 (2%) got an active call. 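Active includes both protection and sensitisation; some change values fall well beyond the stated -50 to +50 range.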 Not all columns of the deposit are shown. No sequences are given here. The record does not give: the amount of reagent.

After knock-down of TAAR1 [SID131505577] the results were two-siRNA summed score (-2 to +2) = 0; mean protection from cisplatin (shift in death) (%) = -2.9; inactive.
Against HPR [SID131521608] the deposit lists two-siRNA summed score (-2 to +2) = 1; mean protection from cisplatin (shift in death) (%) = 14.2; inactive.
Against EVC2 [SID131506327], the values are two-siRNA summed score (-2 to +2) = 0; mean protection from cisplatin (shift in death) (%) = -1.7; inactive.
For IFNA4 [SID131514215], the entry reads two-siRNA summed score (-2 to +2) = 0; mean protection from cisplatin (shift in death) (%) = 7.5; inactive.
With knock-down of FLJ35171 [SID131508723], the record shows two-siRNA summed score (-2 to +2) = 0; mean protection from cisplatin (shift in death) (%) = 1.4; inactive.
PPP6R1 [SID131512568] showed two-siRNA summed score (-2 to +2) = 0; mean protection from cisplatin (shift in death) (%) = 5.6; inactive.
METAP2 [SID131506692] showed two-siRNA summed score (-2 to +2) = 0; mean protection from cisplatin (shift in death) (%) = -1.1; inactive.
SSTR2 [SID131500756] scored two-siRNA summed score (-2 to +2) = -1; mean protection from cisplatin (shift in death) (%) = -16.5; inactive.

In a second layout: 2 of the entries above.
target gene	PubChem SID	two-siRNA summed score (-2 to +2)	mean protection from cisplatin (shift in death) (%)	outcome
PPP6R1	SID131512568	0	5.6	inactive
METAP2	SID131506692	0	-1.1	inactive

More results follow.
For MLLT10 [SID131522403], the entry reads two-siRNA summed score (-2 to +2) = 1; mean protection from cisplatin (shift in death) (%) = 18.3; inactive.
Silencing of ASNS [SID131515689] gave: two-siRNA summed score (-2 to +2) = 0; mean protection from cisplatin (shift in death) (%) = 9.5; inactive.
After knock-down of DEFB119 [SID131521998] the results were two-siRNA summed score (-2 to +2) = 1; mean protection from cisplatin (shift in death) (%) = 15.8; inactive.
For MAGED2 [SID131506822] the deposit lists two-siRNA summed score (-2 to +2) = 0; mean protection from cisplatin (shift in death) (%) = -0.9; inactive.
SNX6 [SID131514623] scored two-siRNA summed score (-2 to +2) = 0; mean protection from cisplatin (shift in death) (%) = 8; inactive.
Against LOC441036 [SID131517843], the entry reads two-siRNA summed score (-2 to +2) = 0; mean protection from cisplatin (shift in death) (%) = 15.1; inactive.
FOXD3 [SID131510387] scored two-siRNA summed score (-2 to +2) = 0; mean protection from cisplatin (shift in death) (%) = 3.2; inactive.
For IFT46 [SID131511605], the entry reads two-siRNA summed score (-2 to +2) = 0; mean protection from cisplatin (shift in death) (%) = 4.5; inactive.
Depletion of LOC440064 [SID131522313] came out at: two-siRNA summed score (-2 to +2) = 1; mean protection from cisplatin (shift in death) (%) = 17.7; inactive.
SLPI [SID131520210] scored two-siRNA summed score (-2 to +2) = 1; mean protection from cisplatin (shift in death) (%) = 9.1; inactive.
With knock-down of USH2A [SID131516472] the results were two-siRNA summed score (-2 to +2) = 0; mean protection from cisplatin (shift in death) (%) = 10.9; inactive.
For NPFFR2 [SID131514123], the values are two-siRNA summed score (-2 to +2) = 0; mean protection from cisplatin (shift in death) (%) = 7.4; inactive.
For MRPS14 [SID131521950], the entry reads two-siRNA summed score (-2 to +2) = 1; mean protection from cisplatin (shift in death) (%) = 15.5; inactive.
